Test results: publication PMC12624029
These are yes or no findings as the source states them, for the method shown. Binding seen in cells or lysates may run through a third protein. Some binding calls cover weakened binding; strength is not graded here.

Key:
[1] = target: T1, Caspase-8 (mouse (endogenous in HT-22)) (UniProt O89110); test: co-IP; HT22 cells without TMAO treatment; RIPA lysate, 500 ug total protein with 2 ug rabbit anti-caspase-8 antibody overnight at 4 C, protein A/G magnetic beads, five washes with lysis buffer; immunoblot for CASP8, CASP1, ASC, GAPDH
T1 sequence: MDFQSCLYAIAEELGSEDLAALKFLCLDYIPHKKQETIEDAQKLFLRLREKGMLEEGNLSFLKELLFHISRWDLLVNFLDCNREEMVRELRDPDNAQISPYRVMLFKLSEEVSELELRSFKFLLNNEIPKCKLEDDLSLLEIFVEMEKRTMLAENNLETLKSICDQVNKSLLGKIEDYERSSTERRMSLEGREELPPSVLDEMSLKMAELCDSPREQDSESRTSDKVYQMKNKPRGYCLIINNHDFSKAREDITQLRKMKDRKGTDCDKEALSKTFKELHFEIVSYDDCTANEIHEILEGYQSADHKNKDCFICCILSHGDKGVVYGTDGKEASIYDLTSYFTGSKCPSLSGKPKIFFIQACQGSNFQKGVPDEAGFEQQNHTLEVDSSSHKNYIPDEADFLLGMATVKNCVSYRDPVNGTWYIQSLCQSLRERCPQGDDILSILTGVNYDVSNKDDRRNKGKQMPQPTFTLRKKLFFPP

[2] = target: T1, Caspase-8 (mouse (endogenous in HT-22)); test: co-IP; HT22 cells treated with 20 mg/mL TMAO for 16 h; RIPA lysate, 500 ug total protein with 2 ug rabbit anti-caspase-8 antibody overnight at 4 C, protein A/G magnetic beads, five washes with lysis buffer; immunoblot for CASP8, CASP1, ASC, GAPDH
[3] = target: T2, Caspase-8 (mouse (endogenous in HT-22)), O89110; test: as above; conditions: remark: other sources report otherwise
T2 chain: T1 sequence

B1: Caspase-1 (protein, UniProt P29452 1-402)
chain: MADKILRAKRKQFINSVSIGTINGLLDELLEKRVLNQEEMDKIKLANITAMDKARDLCDHVSKKGPQASQIFITYICNEDCYLAGILELQSAPSAETFVATEDSKGGHPSSSETKEEQNKEDGTFPGLTGTLKFCPLEKAQKLWKENPSEIYPIMNTTTRTRLALIICNTEFQHLSPRVGAQVDLREMKLLLEDLGYTVKVKENLTALEMVKEVKEFAACPEHKTSDSTFLVFMSHGIQEGICGTTYSNEVSDILKVDTIFQMMNTLKCPSLKDKPKVIIIQACRGEKQGVVLLKDSVRDSEEDFLTDAIFEDDGIKKAHIEKDFIAFCSSTPDNVSWRHPVRGSLFIESLIKHMKEYAWSCDLEDIFRKVRFSFEQPEFRLQMPTADRVTLTKRFYLFPGH
- binding [1]: no binding (condition: cells without TMAO stimulation)
- binding [2]: binds

B2: ASC, Q9EPB4 1-193 (protein)
chain: MGRARDAILDALENLSGDELKKFKMKLLTVQLREGYGRIPRGALLQMDAIDLTDKLVSYYLESYGLELTMTVLRDMGLQELAEQLQTTKEESGAVAAAASVPAQSTARTGHFVDQHRQALIARVTEVDGVLDALHGSVLTEGQYQAVRAETTSQDKMRKLFSFVPSWNLTCKDSLLQALKEIHPYLVMDLEQS
- binding [3]: binds
